# Data: PubChem BioAssay AID2685 (National Center for Advancing Translational Sciences (NCATS), 2010)
# This is one part of the list. The main result of the screen is listed elsewhere. These columns were measured beside it and carry no call. The list favours compounds with an active or inconclusive main result. The note in brackets gives the kind of curve behind each potency; many fits are weak.
# Experiment: qHTS Assay for Lipid Storage Modulators in Drosophila S3 Cells;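 as to cell number change: cells counted by Cell Tracker Red CMTPX staining in the red channel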
# Conditions: BODIPY lipid droplet fluorescence, 18-24 h; for cell number change: measured here: cell count max response, cells fed with added oleic acid
# Procedure, shortened: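 Laser-scanning cytometry quantifies lipid droplet accumulation (500–530 nm total intensity; droplet/cell object ratio) in oleic acid-fed (400 uM added) Drosophila S3 cells treated with a concentration series. 20 uM Triacsin C defined 100% inhibition.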
# [1] = measured here: cell number channel AC50, cells fed with added oleic acid
# [2] = measured here: lipid fluorescence (Fed channel) AC50, cells fed with added oleic acid
Compound,cell number change [%],AC50 [1],AC50 [2]
CCCCNC(=S)N1CCC(Cc2ccccc2)CC1,43.3,"4.61 µM [rising, full curve]","4.11 µM [rising, partial curve, poor fit]"
COc1ccc(C(=O)C2CCCN(C(=O)C3=CCCC3)C2)c(C)c1 (stereo not given),-20.5,,"29.1 µM [falling, single point]"
COc1ccc(C[C@H]2CN3C(=NC[C@H]3Cc3ccccc3)N2CCNC(=O)c2ccc(C)c(Br)c2)cc1,-71,"29.1 µM [falling, single point]","25.9 µM [falling, partial curve]"
CCOc1ncccc1C(=O)OCc1cc(=O)oc2c(C)c(C)ccc12,2.94,,"5.17 µM [falling, single point]"
Cc1cc(C(=O)COC(=O)C2=NNC(=O)CC2)c(C)n1-c1ccccc1,6.74,,
Cc1cc2c(ncn2C(C)C)c(NS(=O)(=O)c2ccc(F)cc2)c1C,32.3,"16.4 µM [rising, single point]","9.2 µM [rising, partial curve, poor fit]"
O=C(NCC1CCCO1)C1CCCN1C(=O)Nc1ccccc1[N+](=O)[O-] (stereo not given),3.95,,"35.5 µM [rising, single point]"
CCN1CC(CN(C)Cc2nc(-c3ccc(OC)c4ccccc34)oc2C)CC1=O (stereo not given),8.23,"0.651 µM [rising, full curve, poor fit]",
S=c1nc(-c2sccc2OCc2ccc(Cl)cc2Cl)[nH][nH]1,0.913,"1.03 µM [rising, full curve]","1.84 µM [rising, partial curve]"
Cc1cc(C)c(C#N)c(Nc2ccc3c(c2)OCCO3)n1,-20,"0.116 µM [falling, full curve, poor fit]","1.16 µM [falling, full curve]"
CC1=NNC(=O)C1CC(=O)N/N=C/c1ccc(C)o1 (stereo not given),25.3,,"29.1 µM [rising, partial curve, poor fit]"
CCCCOc1ccc(-c2ncc([N+](=O)[O-])cn2)cc1,-4.59,"1.64 µM [rising, partial curve, poor fit]","0.651 µM [rising, partial curve, poor fit]"
O=C(CN1CC(c2ccccc2)CC1=O)Nc1ccc2c(c1)OCO2 (stereo not given),16.6,,"0.731 µM [rising, partial curve]"
O=C(CCCc1ccccc1)c1ccccc1,16.7,,"29.1 µM [rising, partial curve]"
CSc1nc(C)cc(OCC#N)n1,17.2,,"0.651 µM [rising, full curve, poor fit]"
CCC(C)(C)c1ccc(OCCCC[n+]2cccc(C)c2C)c(C(C)(C)CC)c1,-67.3,"2.91 µM [falling, full curve]","2.31 µM [falling, partial curve, poor fit]"
OC(CNCC#Cc1ccccc1)c1ccccc1 (stereo not given),-37.1,,
COCCCNS(=O)(=O)c1ccc(S(=O)(=O)N2CCCC2)cc1,,,"2.91 µM [falling, partial curve, poor fit]"
O=C(NCCc1ccccc1)c1ccccc1NC(=O)C1CCCO1 (stereo not given),136,,
CCOC(=O)c1c(N)c(C#N)c2n1CCCCC2,-11.5,,"0.164 µM [falling, full curve, poor fit]"

Compound,cell number change [%],AC50 [1],AC50 [2]
COc1ccc(C)cc1NC(=O)C1CCCN1S(=O)(=O)c1ccccc1F (stereo not given),-26.6,,
COc1ccc(-c2cn3cccnc3n2)cc1Br,21.5,,"6.51 µM [rising, single point]"
O=C1c2ccccc2NC(c2ccc(O)cc2)N1c1ccccc1 (stereo not given),-1.39,,
CSCCC(NS(=O)(=O)c1ccccc1F)C(=O)NCc1cccnc1 (stereo not given),50.6,"13 µM [rising, partial curve, poor fit]",
CCOCCCNC(=O)C(NC(=O)c1ccccc1O)c1ccc(Cl)cc1 (stereo not given),1.6,,
O=C(CSC1CN(C(c2ccccc2)c2ccccc2)C1)N/N=C/c1ccc(Cl)cc1Cl,22,,"29.1 µM [rising, single point]"
NC(=O)c1ccc(-c2nnc(Nc3ccc(S(N)(=O)=O)cc3)c3ccccc23)cc1,-18.3,,"29.1 µM [falling, single point]"
O=S(=O)(CC(CN1CCCC1)N1CCCC1)c1ccc2ccccc2c1 (stereo not given),,,"9.2 µM [falling, partial curve]"
Cc1ccc(-c2noc(CSc3nnnn3-c3ccccc3)n2)cc1,,,"25.9 µM [falling, single point]"
CCOC(=O)CC(NC(=O)Cc1cccs1)c1ccccc1Cl (stereo not given),-1.42,,
CCC(=O)NCCc1nc2cc(NC(=O)c3ccccc3OC)ccc2n1C,41.5,"0.058 µM [rising, full curve, poor fit]",
CCN(CC)c1ccc(NC(=O)CCN2C(=O)c3ccccc3S2(=O)=O)c(C)c1,20.5,,
O=C1CN(c2ccccc2)C(=S)N1C(=O)c1ccccc1,-14.3,,"0.00461 µM [falling, full curve, poor fit]"
CCn1c(Cc2ccccc2)nnc1SC(C)C(=O)NC1CC1 (stereo not given),9.78,,"0.82 µM [rising, full curve]"
c1ccc(-c2ccc3nnnn3n2)cc1,-14.4,,"4.11 µM [falling, single point]"
O=C(Nc1cc(Cl)ccc1N1CCCCC1)c1cccs1,34.5,"0.82 µM [rising, full curve]","2.31 µM [rising, partial curve]"
CCCCC(=O)Nc1cccc(-c2cn3ccccc3n2)c1,-29.8,,"7.31 µM [falling, partial curve]"
Nc1nonc1C(=O)N1CCCCC1,,,"0.58 µM [rising, single point]"
O=C1NC(=O)/C(=C/c2cccc3ccccc23)S1,-19.5,,"29.1 µM [rising, single point]"
COc1cc(OC)c(N2CC34C=CC(O3)C(C(=O)O)C4C2=O)cc1Cl (stereo not given),-42.6,"25.9 µM [falling, single point]","29.1 µM [falling, single point]"

Compound,cell number change [%],AC50 [1],AC50 [2]
CN1c2ccccc2C(O)=C(C(=S)Nc2ccccc2)S1(=O)=O,-24.9,,"1.3 µM [falling, full curve]"
Cc1ccc(C2C(/C=C3/SC(=S)NC3=O)=C(c3cccs3)Oc3ccccc32)cc1 (stereo not given),-14.4,,"0.0058 µM [falling, full curve, poor fit]"
CN(CC(=O)NCc1ccc(Cl)cc1)S(=O)(=O)c1cccs1,1.35,,"29.1 µM [rising, single point]"
COc1ccc(-c2coc3cc4oc(=O)c(CC(=O)O)c(C)c4cc23)cc1,44.4,"7.31 µM [rising, full curve]","29.1 µM [falling, single point]"
CCNC(=S)N1CCN(C(=O)c2ccco2)CC1,21,,"18.4 µM [rising, single point]"
O=C(CSc1nnc(C2CC2)n1C1CC1)Nc1cccc(Br)c1,-45.8,"0.82 µM [falling, full curve]","0.164 µM [falling, full curve]"
CC(=O)N1CCN(c2ccc(NC(=O)C(C)Oc3ccc(Cl)cc3Cl)cc2)CC1 (stereo not given),,,"0.731 µM [rising, single point]"
N#CCc1nn2c3c(cnc2c1C#N)C(=O)CCC3,-33.6,,
CSc1ccc(-c2nnn(Cc3ccc(C)cc3)n2)cc1,87,"29.1 µM [rising, single point]","6.51 µM [rising, single point]"
O=C(Nc1cc(Cl)ccc1Oc1ccccc1)c1cnccn1,-0.0134,,
Cc1cc(C)nc(N2CCN(c3ncnc4c3cnn4Cc3ccc(Cl)cc3Cl)CC2)n1,-13.1,"0.291 µM [rising, full curve]","0.517 µM [rising, full curve]"
COc1ccc(/C=C/C(=O)NC(=S)Nc2ccc(S(=O)(=O)Nc3nccnc3OC)cc2)cc1,,"6.51 µM [rising, single point]","6.51 µM [rising, partial curve, poor fit]"
CC(C)(C)c1cc[n+](/C(C(=S)NC2CC2)=C(/[O-])c2ccc(Cl)s2)cc1,2.11,"6.51 µM [falling, single point]",
CC(=O)N1[C@H](C)C=C[C@]1(Cc1ccccc1)C(=O)O,26.9,,"4.61 µM [rising, full curve, poor fit]"
Cc1ccccc1CS(=O)(=O)c1nnc([C@H](Cc2ccccc2)NC(=O)OC(C)(C)C)o1,-62.6,"0.517 µM [falling, full curve]","16.4 µM [falling, partial curve]"
Cc1ccc(Oc2nnc(-c3cccs3)c3ccccc23)cc1,2.36,,"0.116 µM [rising, full curve, poor fit]"
Cc1sc(NC(=O)CSc2nnc3scc(-c4ccccc4)n23)c(C#N)c1C,-60,"20.6 µM [falling, single point]","29.1 µM [falling, single point]"
COc1ccc(-n2c(Cc3cccn3C)nnc2SCC(=O)Nc2cc(Cl)ccc2OC)cc1,-29.6,,"13 µM [falling, partial curve, poor fit]"
CCOc1ccc(NC(=O)C2CCCN2C(=O)Oc2ccccc2)cc1 (stereo not given),32.1,"18.4 µM [rising, single point]",
COc1ccc(N(CC(=O)N/N=C/c2ccc(-c3ccc([N+](=O)[O-])cc3)o2)S(=O)(=O)c2ccc(C)cc2)cc1Cl,-26.6,,"29.1 µM [falling, single point]"

# In a second layout: entries from further up.
Compound	cell number change [%]	AC50 [1]	AC50 [2]
Cc1cc(C)nc(N2CCN(c3ncnc4c3cnn4Cc3ccc(Cl)cc3Cl)CC2)n1	-13.1	0.291 µM [rising, full curve]	0.517 µM [rising, full curve]
COc1ccc(-n2c(Cc3cccn3C)nnc2SCC(=O)Nc2cc(Cl)ccc2OC)cc1	-29.6		13 µM [falling, partial curve, poor fit]
